{"source": "PubChem BioAssay AID720505 (Drosophila RNAi Screening Center, 2013)", "test": "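Knock-downs that reduce calcium influx once internal stores are emptied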 (primary screen)", "cells": "Drosophila S2R+ cells", "knock-down reagent": "long dsRNA against Drosophila genes", "treatment": "thapsigargin (2 µM) in calcium-free buffer to empty internal stores, then 2 mM calcium added back", "read-out": "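Stores emptied by 2 µM thapsigargin without calcium, then 2 mM calcium re-added; fluo-4 fluorescence followed by FLIPR in 384-well plates, per-well averaged endpoint, raw; two screen passes, some wells retested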", "direction": "calcium signal and retest calcium signal: higher = more calcium entry after store depletion", "rule for the call": "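Knock-downs counted as hits when calcium entry dropped relative to STIM1 positive and Rho1 negative controls present on each plate; roughly 1500 genes called, with reductions of differing size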", "meaning of the calls": "active = called as lowering calcium entry; inactive = not called", "note": "The deposit covers about 20,000 reagents; this is an unselected part of those with a known target gene and a result. Over the whole deposit, about 2,100 (10%) were called active. 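Raw plate signals without normalisation; calls rest on control-based scores that were not deposited; replicate 2 separates called from uncalled poorly.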 The numbers tell different reagents against one gene apart. Names joined by + are all predicted targets of the reagent. The record does not give: the amount of reagent, the time to read-out."}
{"target gene":"PTPMT1","dsRNA no.":1,"calcium signal, replicate 1":139,"calcium signal, replicate 2":164,"outcome":"inactive"}
{"target gene":"udt","dsRNA no.":1,"calcium signal, replicate 1":128,"calcium signal, replicate 2":158,"outcome":"inactive"}
{"target gene":"cyp33","dsRNA no.":1,"calcium signal, replicate 1":159,"calcium signal, replicate 2":102,"outcome":"inactive"}
{"target gene":"ImpE1","dsRNA no.":1,"calcium signal, replicate 1":84.6,"calcium signal, replicate 2":44.8,"outcome":"inactive"}
{"target gene":"ImpE1","dsRNA no.":2,"calcium signal, replicate 1":97.7,"calcium signal, replicate 2":87.3,"outcome":"inactive"}
{"target gene":"Hexo1","dsRNA no.":1,"calcium signal, replicate 1":102,"calcium signal, replicate 2":115,"outcome":"inactive"}
{"target gene":"CG7579","dsRNA no.":1,"calcium signal, replicate 1":82.5,"calcium signal, replicate 2":186,"outcome":"inactive"}
{"target gene":"Mst98Cb","dsRNA no.":1,"calcium signal, replicate 1":142,"calcium signal, replicate 2":169,"retest calcium signal, replicate 1":6364,"retest calcium signal, replicate 2":153,"outcome":"inactive"}
{"target gene":"Mst98Cb","dsRNA no.":2,"calcium signal, replicate 1":62.8,"calcium signal, replicate 2":169,"outcome":"inactive"}
{"target gene":"CG14406","dsRNA no.":1,"calcium signal, replicate 1":96.9,"calcium signal, replicate 2":145,"outcome":"inactive"}
{"target gene":"CG11523","dsRNA no.":1,"calcium signal, replicate 1":150,"calcium signal, replicate 2":110,"outcome":"inactive"}
{"target gene":"SelT","dsRNA no.":1,"calcium signal, replicate 1":109,"calcium signal, replicate 2":139,"outcome":"inactive"}
{"target gene":"IntS8","dsRNA no.":1,"calcium signal, replicate 1":126,"calcium signal, replicate 2":100,"outcome":"inactive"}
{"target gene":"CG33557","dsRNA no.":1,"calcium signal, replicate 1":96.6,"calcium signal, replicate 2":83.6,"outcome":"inactive"}
{"target gene":"CG32119","dsRNA no.":1,"calcium signal, replicate 1":7457,"calcium signal, replicate 2":127,"outcome":"inactive"}
{"target gene":"CG32119","dsRNA no.":2,"calcium signal, replicate 1":108,"calcium signal, replicate 2":97,"outcome":"inactive"}
{"target gene":"Blos4","dsRNA no.":1,"calcium signal, replicate 1":78.4,"calcium signal, replicate 2":69.4,"outcome":"inactive"}
{"target gene":"CG7997","dsRNA no.":1,"calcium signal, replicate 1":152,"calcium signal, replicate 2":119,"outcome":"inactive"}
{"target gene":"MFS14","dsRNA no.":1,"calcium signal, replicate 1":126,"calcium signal, replicate 2":86.5,"retest calcium signal, replicate 1":144,"retest calcium signal, replicate 2":109,"outcome":"inactive"}
{"target gene":"CG33340","dsRNA no.":1,"calcium signal, replicate 1":205,"calcium signal, replicate 2":166,"outcome":"inactive"}
{"target gene":"CG10222","dsRNA no.":1,"calcium signal, replicate 1":88.2,"calcium signal, replicate 2":76.5,"outcome":"inactive"}
{"target gene":"Eig71Ee","dsRNA no.":1,"calcium signal, replicate 1":66.3,"calcium signal, replicate 2":159,"outcome":"inactive"}
{"target gene":"lncRNA:CR31386","dsRNA no.":1,"calcium signal, replicate 1":111,"calcium signal, replicate 2":179,"outcome":"inactive"}
{"target gene":"lncRNA:CR31386","dsRNA no.":2,"calcium signal, replicate 1":156,"calcium signal, replicate 2":160,"outcome":"inactive"}
{"target gene":"elav","dsRNA no.":1,"calcium signal, replicate 1":111,"calcium signal, replicate 2":121,"outcome":"inactive"}
{"target gene":"XNP","dsRNA no.":1,"calcium signal, replicate 1":65.9,"calcium signal, replicate 2":91,"outcome":"active"}
{"target gene":"CG1889 + CG43386","dsRNA no.":1,"calcium signal, replicate 1":73.8,"calcium signal, replicate 2":144,"outcome":"active"}
{"target gene":"Asciz","dsRNA no.":1,"calcium signal, replicate 1":84.5,"calcium signal, replicate 2":110,"outcome":"inactive"}
